Measured values published in PMC6791687.
Results are given in words; binding and its absence hold for the method and conditions named. In cells and extracts the contact can be indirect. Here binding means that the protein was enriched with, or labelled near, the bait; the list need not be complete.

T1: FAMA-TbID-Venus (FAMApro::FAMA-TbID-mVenus in fama-1) (Arabidopsis thaliana) (UniProt Q56YJ8)
T1 sequence: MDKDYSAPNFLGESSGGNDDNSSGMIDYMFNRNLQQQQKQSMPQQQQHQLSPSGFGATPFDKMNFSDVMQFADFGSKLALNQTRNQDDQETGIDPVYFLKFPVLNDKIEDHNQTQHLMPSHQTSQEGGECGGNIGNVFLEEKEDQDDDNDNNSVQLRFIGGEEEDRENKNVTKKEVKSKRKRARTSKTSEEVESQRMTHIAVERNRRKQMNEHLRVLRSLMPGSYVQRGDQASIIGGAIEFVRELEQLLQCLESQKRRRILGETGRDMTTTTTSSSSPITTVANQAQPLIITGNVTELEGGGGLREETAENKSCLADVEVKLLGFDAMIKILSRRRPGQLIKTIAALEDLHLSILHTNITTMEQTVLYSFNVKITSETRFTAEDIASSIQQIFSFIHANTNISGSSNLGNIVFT

B1: CPH (protein, UniProt Q9LM02 1-336)
chain: MDLASNLGGKIDKSDVLTAVEKYEQYHVFHGGNEEERKANYTDMVNKYYDLATSFYEYGWGESFHFAQRWKGESLRESIKRHEHFLALQLGIQPGQKVLDVGCGIGGPLREIARFSNSVVTGLNNNEYQITRGKELNRLAGVDKTCNFVKADFMKMPFPENSFDAVYAIEATCHAPDAYGCYKEIYRVLKPGQCFAAYEWCMTDAFDPDNAEHQKIKGEIEIGDGLPDIRLTTKCLEALKQAGFEVIWEKDLAKDSPVPWYLPLDKNHFSLSSFRLTAVGRFITKNMVKILEYIRLAPQGSQRVSNFLEQAAEGLVDGGRREIFTPMYFFLARKPE
B2: KNAT4 (protein, UniProt P48001 1-393)
chain: MAFHNNHFNHFTDQQQHQPPPPPQQQQQQHFQESAPPNWLLRSDNNFLNLHTAASAAATSSDSPSSAAANQWLSRSSSFLQRGNTANNNNNETSGDVIEDVPGGEESMIGEKKEAERWQNARHKAEILSHPLYEQLLSAHVACLRIATPVDQLPRIDAQLAQSQNVVAKYSTLEAAQGLLAGDDKELDHFMTHYVLLLCSFKEQLQQHVRVHAMEAVMACWEIEQSLQSFTGVSPGEGTGATMSEDEDEQVESDAHLFDGSLDGLGFGPLVPTESERSLMERVRQELKHELKQGYKEKIVDIREEILRKRRAGKLPGDTTSVLKSWWQSHSKWPYPTEEDKARLVQETGLQLKQINNWFINQRKRNWHSNPSSSTVSKNKRRSNAGENSGRDR
B3: CER26-LIKE (protein, UniProt Q9LIS1 1-420)
chain: MGLVQEEGSGPVHGFRLSTVSASLPSETGTTHEPTGLDLAMKLHYLKAVYIYSAGTARDLTVMDVKAPLFSVFYQIPCIIGRFRRHESGRPYLKCNDCGTRFVESHCDLTVEEWLRVPDRSVDESLVYHQPVGPDLAFSPLLYIQMTRFSCGGLALGLSWAHIMGDPFSLSHFFNLWAQAFAGGKIYCPKTSVTERDFQNPTSTFKKPDSVKQVDLVGDLWVAPNNSKMTTFSFNLTVNDLKTHFPVNGDGEFEILTGIIWKCVATVRGESAPVTITVIRSDPKKLKPRAVRNGQMISSIHVDFSVAEASLEEIVKSIGEAKDERVVIDEIVDDVSDFIVYGANLTFVDMSEVDFYEAKVMGKSPESVYCNVQGIGDDGAVVVLPGVVEEERVVTVTLPVDEIEKVKWEMKKCGLITPLV
B4: PHL (protein, UniProt F4IDB2 1-1325)
chain: MGVSFKISKVGRKFRPKISTELATPDSPKAIVLSGKPKATDDSNIGDVSGFSKPSLPDISPDHEVSFILSLYPNGYSIGKTSEAMQQISFRDVPKVLHPYDRAAEGLLSAIEAGRLPGDILEDIPCKFVDGVVICEVHDYRKHTSSQVSPVINKLRLKMSLENVVKDIPSMSDNSWTYGDLMEVESRILKALQPELCLDPLPRLDRLSKNPLTAKLDLSLSTLRRKRLRQMAEVTVMSQNKIQGKKVCIDRLPESSERGNLPGHLIMQQTNNNQAIQNLGTNMLAGLRSQPLQDAPNSSLALVPPQQQRYMGIGSTRNTQDQGSNSVSVSGASPGGLDAMLPYGSDSMNPGTSFHRKRESQEGQMSSMPGLNKRTRVSHMGPDGVPQQQLGQRMDGLHGSDTNWKNTLLQHQDMLGRSIQYPNTSIQRFSPHQMEGVMNQEGGPMQFPASQQGGMKYTSKEEPFETGKIDGGTRNNIPGVGSDANDLDPRIQSRMPHNAFIRSNFPQTSWNVNPGQQIEKEPKKEEQFSRRISAQSPRLSAGGPPQSPLSSKSGEFSGGSMGTHYGAVAAAQKDKAVTSIPAIGATQSVGSSANEAMQQRQHQAQMAAKRRTNSLPKTQVISTVGSPVSVNTISVPVNARSPSVGPQTLGDHAILDRFSKIERVAARYQLNCKKHKVDEYSRRPRVYAKQPLTVCLSNLSNEEVFKDEDEALSKSIFGGSMNTYKTRVIHFGQMERVMQGSVPSFIPRNRTRLVMSEKAVDGTVAWYQGDVDEGDVFQAEDFLLALPNTHIADLLATQFKSLMAREGYMIEEHIMAKPNRGDTGPISSHPNSAGGYPRGYSANDMQQYGDAVAGQASGEASKHGNTGNTPNNSTQNILANARMVPPTNSQALQMSQGLLSGVSMPMQPQQLDPQQSALLSSHSQQKNQQSMFTQQQHPQMQRPSMILPTNPLSAINSMSQSSGMQPGGQMANKYSPLQLQMLQQQQQAAVQKKIMMGLGSGVGMGMGMGMGMGMGSMGNSIAGLGALGNQLNMAGRGMGGTGISSSMSVPGIGNMGQNPMNLNPASNLNAISQQLRSGALTPQQNALFTQIRMGMANRGGVMGAPQTGISGVSGTRQMHPSSAGLSMLDQNRANLQRAAAMGNMGPPKLMPGMMNLYMNQQQQQQQLQQQPQQQQLQHQQQLQQPMSQPSQQLAQSPQQQQQLQQHEQPQQAQQQQQATASPLQSVLSPPQVGSPSAGITQQQLQQSSPQQMSQRTPMSPQQVNQRTPMSPQISSGAMHPMSTSNLEGCPASPQLSSQTMGSVGSITNSPMELQGPKNNSAGNNS
B5: HAP1 (protein, UniProt O23676 1-150)
chain: MAAEEATEFYLRYYVGHKGKFGHEFLEFEFREDGKLRYANNSNYKNDTIIRKEVFLTPAVLKECKRIVSESEILKEDDNNWPEPDRVGKQELEIVLGNEHISFATSKIGSLVDCQSSNDPEGLRIFYYLVQDLKCLVFSLISLHFKIKPI
B6: FMO (protein, UniProt Q9FWW9 1-465)
chain: MATSHPDPTTSRHVAVIGAGAAGLVAARELRREGHSVVVLERGSQIGGVWAYTSQVEPDPLSLDPTRPVVHSSLYRSLRTNIPRECMGFTDFPFATRPHDGSRDPRRHPAHTEVLAYLRDFAKEFDIEEMVRFETEVVKAEQVAAEGEERGKWRVESRSSDGVVDEIYDAVVVCNGHYTEPRHALITGIDSWPGKQIHSHNYRVPDQFKDQVVIVIGSSASGVDICRDIAQVAKEVHVSSRSTSPDTYEKLTGYENLWLHSTIQIAREDGSVVFENGKTIYADTIMHCTGYKYYFPFLDTKGEVTVDDNRVGPLYKHVFPPALAPSLSFIGLPWQITPFPMFELQSKWVAAVLSGRVSLPSQDEMMEDTKAFYDKLEASGIPKRYTHLMPDDSQFEYDNWLADQCEYPRIEKWREQMFYIGFKRIYAQSSTYRDNWDDDHLIVEAYDDFVKFMSSYQELLPMLKT
B7: MED16 (protein, UniProt F4JGZ1 1-1278)
chain: MNQQNPEEEVSLVNNSGGGGIIEAPAIVEEKEEEGLQQKQEETIESTDPILVVVEEKLLEKSVDGEKEDDNSSSSNMEIDPVSPATVFCVKLKQPNSNLLHKMSVPELCRNFSAVAWCGKLNAIACASETCARIPSSKANTPFWIPIHILIPERPTECAVFNVVADSPRDSVQFIEWSPTSCPRALLIANFHGRITIWTQPTQGSANLVHDATSWQCEHEWRQDIAVVTKWLTGASPYRWLSSKPSSGTNAKSTFEEKFLSQSSESSARWPNFLCVCSVFSSGSVQIHWSQWPSNQGSTAPKWFSTKKGLLGAGPSGIMAADAIITDSGAMHVAGVPIVNPSTIVVWEVTPGPGNGLQATPKISTGSRVPPSLSSSSWTGFAPLAAYLFSWQEYLISEIKQGKKPSDQDSSDAISLSCSPVSNFSAYVSPEAAAQSAATTTWGSGVTAVAFDPTRGGSVIAVVIVEGQYMSPYDPDEGPSITGWRVQRWESSVQPVVLHQIFGNPTSNFGGQVPTQTVWVSRVDMSIPPTKDFKNHQVAAAGPSVDAPKEPDSGDEKANKVVFDPFDLPSDIRTLARIVYSAHGGEIAIAFLRGGVHIFSGPTFSPVENYQINVGSAIAAPAFSPTSCCSASVWHDAAKDCAMLKIIRVLPPALPRNQSKVDQSTWERAIAERFWWSLLVGVDWWDAVGCTQSAAEDGIVSLNSVIAVMDADFHSLPSTQHRQQYGPNLDRIKCRLLEGTNAQEVRAMVLDMQARLLLDMLGKGIESALVNPSALVFEPWRVDGETITGINPEAMAVDPALVSSIQAYVDAVLDLASHFITRLRRYASFCRTLASHAASAGTGSNRNNVTSPTQNASSPATPQVFPDKSLYLAVGQPTTTTTTTATTNSSGSSHVQAWMQGAIAKISSSNDGSNSTASPISGSPTFMPISINTGTFPGTPAVRLIGDCHFLHRLCQLLLFCFLQRSSRFPQRNADVSSQKLQTGATSKLEEVNSAKPTPALNRIEDAQGFRGAQLGTGVKGIDENSARTTKMGSGNAGQGYTYEEVRVLFHILMDLCKRTSGLAHPLPGSQVGSGNIQVRLHYIDGNYTVLPEVVEAALGPHMQNMPRPRGADAAGLLLRELELHPPSEEWHRRNLFGGPGSEPEDMILTDDVSKLSNSLDLPDTNFSGICDGYNRVHSLWPRKRRMSERDAAFGSNTSVGLGAYLGIMGSRRDVVTATWKTGLEGVWYKCIRCLRQTSAFASPGATKQPNPNERETWWTSRWVYCCPMCGGTWVRVV
B8: FIP37 (protein, UniProt Q9ZSZ8 1-330)
chain: MEFSSQDDDFGGDDSAANATRASGNRRSFGDLEDDEDDIFGSTTVAPGVRTGMILSLRGSLKNCKDDLASCQNELESAKTEIQKWKSAFQNESFVPAGKSPEPRFLIDYIQNLKSSEKSLKEQLEIAKRKEASCIVQYAKREQEMAELKSAVRDLKSQLKPASMQARRLLLDPAIHEEFSRLKNLVEEKDKKIKELQDNIAAVTFTPQSKNGKMLMAKCRTLQEENEEIGHQAAEGKIHELAIKLAMQKSQNAELRSQFEGLYKHMEELTNDVERSNETVIILQEKLEEKEKEIERVKKGLEIVSELVGDKKDEVDEIDEDAKEEIAGGE
B9: UGE3 (protein, UniProt Q8LDN8 1-351)
chain: MGSSVEQNILVTGGAGFIGTHTVVQLLNQGFKVTIIDNLDNSVVEAVHRVRELVGPDLSTKLEFNLGDLRNKGDIEKLFSNQRFDAVIHFAGLKAVGESVGNPRRYFDNNLVGTINLYETMAKYNCKMMVFSSSATVYGQPEIVPCVEDFELQAMNPYGRTKLFLEEIARDIHAAEPEWKIILLRYFNPVGAHESGRIGEDPKGIPNNLMPYIQQVAVGRLPELNVFGHDYPTMDGSAVRDYIHVMDLADGHVAALNKLFSDSKIGCTAYNLGTGQGTSVLEMVSSFEKASGKKIPIKLCPRRAGDATAVYASTQKAEKELGWKAKYGVDEMCRDQWNWANKNPWGFQKKP

What follows are binders tested against T1, FAMA-TbID-Venus (FAMApro::FAMA-TbID-mVenus in fama-1) (Arabidopsis thaliana) (assay: proximity labelling; FAMApro::FAMA-TbID-Venus in 5-day-old Arabidopsis seedlings, 50 uM biotin for 0, 0.5 or 3 h; biotinylated proteins purified on streptavidin beads, on-bead digest, LC-MS/MS with label-free quantification; filtered for enrichment against WT, nuclear TbID (FAMAnucTbID) and untreated samples; three biological replicates).

binding	Binder
binds	B1
binds	B2
binds	B3
binds	B4
binds	B5
binds	B6
binds	B7
binds	B8
binds	B9
